From patent publication US20220220212A1 (RESEARCH FOUNDATION FOR THE STATE UNIVERSITY OF NEW YORK, published 2022)
No constants are given. Whether binding was seen depends on the method and setting. Some binding calls cover weakened binding; strength is not graded here.

Target: ECL2 domain of the CCR2 chemokine receptor
Assay: phage display screening against ECL2

binding: binds
B1: clone 11b (scFv)
scFv: DYKDDDDKLQPVLTQPSSASGTPGQRVTISCSGSSSNIGSNYVYWYQQLPGTAPKLLIYRNNQRPSGVPDRFSGSKSGTSASLAISGLQSEDEADYYCAAWDDTLIGPVFGGGTKLTVLGEGKSSGSGSESKASEVQLVESGGGLVKPGGSLTLSCAVSGFPFSDAWMNWVRQAPGKGLEWVGRIRSKAGGGTTDSAAPVKDRFTFSGDDSKNTVYVEMNSLKIEDTAVYYCTGEGYWGQGTLVTVSSVEAS
